Measurements as given in PMC2832016.
No constants are given. Whether binding was seen depends on the method and setting. Binding seen in cells or lysates may run through a third protein. Binding can be weak; no strength is given.

Experiments:
[1] = target: GST-tagged isolated C-terminal region of Scyl1; assay: pull-down; GST-Scyl1 fusion proteins pre-coupled to glutathione-Sepharose beads, incubated 3 h at 4°C with 1 ml rat liver extract (1 mg/ml; 10 mM HEPES pH 7.4, 1% Triton X-100, 50 mM NaCl); washed 3 times; Western blot; only the target purified
[2] = target: GST-Scyl1Δ10 (full-length Scyl1 lacking the last 10 amino acids); assay: as above

binding [1]: binds
binding [2]: binds
B1: 58K/formiminotransferase cyclodeaminase (FTCD) (protein, UniProt O88618 1-541)
chain: MSQLVECVPNFSEGNNQEVIDAISQAISQTPGCVLLDVDAGPSTNRTVYTFVGQPECVVEGALSAARTASQLIDMRKHKGEHPRMGALDVCPFIPVRGVSMDECVLCAKAFGQRLAEELNVPVYLYGEAAQMPSRQTLPAIRAGEYEALPEKLKQAEWVPDFGPSSFVPSWGATVTGARKFLIAFNINLLSTKEQAHRIALNLREQGRGKDQPGRLKKVQGIGWYLEEKNLAQVSTNLLDFEVTALHTVYEEARREAQELNLPVVGSQLVGLVPLKALLDAAAFYCDKEKLFVLEEEHRIRLVVNRLGLDSLAPFDPKERIIEYLVPDSGPEQSLLDASLRAFVREVGARSAAPGGGSVAAAVAALGAALASMVGQMTYGRRQFDHLDSTMRRLIPPFHAASAQLTSLVDADARAFAACLGAIKLPKNTPEERDRRTCALQEGLRQAVAVPLKLAETVSQLWPALQELAQCGNLSCLSDLQVAAKALETGVFGAYFNVLINLKDMTDDVFKEKTRHRISSLLQEAKTQAALVLGSLEARKE
